# Not every detail of the peptide structures is certain; ends, links or a residue may be inferred. *1 amine or outer side, *2 acyl side, *3 side chain or, on linkers, in order; H or OH if unused. Where a SMILES comes first, the peptide text is derived from it. Side-chain parts run from the residue outwards. [ ]: non-standard residue; d: D form. The star is where a group is joined. Ethylenediamine = C(CN[*:2])N[*:1]; Hyp = O=C(O)[C@@H]1C[C@@H](O)CN1; Phg = N[C@H](C(=O)O)c1ccccc1; CO = O=C([*:1])[*:2]; Bn = c1ccc(C*)cc1
# Key:
# HC11 cells = test: BrdU proliferation and cell cycle assay, flow cytometry; assay type: cell-based, mouse; details: undifferentiated HC11, 20 µM, 48 hours
# HCC1937 cells = test: as above; assay type: cell-based, human; details: 20 µM, 48 hours
# [1] = system: Brca1/P53 deficient nulliparous mice; test: Chemoprevention and tumor evolution in nulliparous Brca1/P53 deficient mice; assay type: in vivo
# Brca1/P53 deficient mice = test: Quantification of ductal area in the mammary gland (ImageJ); assay type: in vivo; details: for ductal wall area (ductal component) / ductal area / difference in ductal area: treated vs untreated
# [2] = system: ErbB2/Neu+ nulliparous mice; test: Quantification of ductal area in non-tumoral mammary glands (ImageJ); assay type: in vivo; details: longitudinal cohort, treated vs untreated, P=0.001
# WT mice = test: Flow cytometry of mammary epithelial subpopulations; assay type: in vivo
# Brca1/P53-deficient mice = test: as above; assay type: in vivo
# [3] = treated nulliparous vs untreated multiparous
# [4] = treated vs untreated nulliparous
# [5] = nulliparous WT, within RFP+ EpCAM+ cells
# [6] = multiparous, concerning total epithelial cells (Lin-)
# [7] = multiparous, within recombinant epithelial cells (RFP+)
# [8] = multiparous, within recombinant luminal cells
smiles,measurement,setting,value
"NCCCC[C@@H]1NC(=O)[C@@H](Cc2c[nH]c3ccccc23)NC(=O)[C@H](c2ccccc2)NC(=O)[C@@H]2C[C@@H](OC(=O)NCCN)CN2C(=O)[C@H](Cc2ccccc2)NC(=O)[C@H](Cc2ccc(OCc3ccccc3)cc2)NC1=O [pasireotide, Pasireotide] (cyclo([Hyp]([CO-Ethylenediamine])[Phg][dW]KY(Bn)F))",cells arrested in G0/G1 phase,HC11 cells; statistically significant,increase
same,cells arrested in G2/M phase,HC11 cells; statistically significant,increase
same,S-phase cells,HC11 cells; vs untreated,statistically significant decrease
same,cells in G0/G1 phase,HCC1937 cells,increase
same,number of cells in G2/M phases,HCC1937 cells,reduction
same,proliferation (proportion of cells in S phase),HCC1937 cells,statistically significant decrease
same,tumor incidence,"[1]; treated nulliparous mice, p=0.027 vs untreated",66.7%
same,tumor incidence,[1]; [3],no differences
same,tumor multiplicity,[1]; [3],lower in untreated multiparous mice than in the treated nulliparous ones
same,tumor latency,[1]; treated nulliparous vs untreated parous mice with breastfeeding,equivalent
same,tumors with good to moderate differentiation,"[1]; treated nulliparous, P = 0.0333 vs untreated",71.4%
same,tumors that were infiltrating ductal carcinomas,"[1]; treated nulliparous, P = 0.3830 vs untreated",95.2%
same,duration of the disease,[1]; [4],No differences
same,incidence of metastases,[1]; [4],No statistical differences
same,multiplicity regarding metastases,[1]; [4],No statistical differences
same,number of tumors,[1]; [4],No differences
same,tumor multiplicity,[1]; [4],No differences
same,overall survival,"[1]; treated vs untreated nulliparous, P=0.051",Differences were observed in overall survival with a statistical trend
same,tumor latency,"[1]; treated vs untreated nulliparous, p = 0.044",statistically significant increase
same,growth speed,"[1]; tumor growth, treated vs untreated nulliparous, p= 0.038",statistically significant decrease
same,ductal wall area (ductal component),"Brca1/P53 deficient mice; multiparous at five months, P=0.0062",dramatic decrease
same,ductal area,"Brca1/P53 deficient mice; multiparous longitudinal cohort, all mice, P<0.0001",reduced
same,difference in ductal area,"Brca1/P53 deficient mice; multiparous longitudinal cohort, high tumor latency, P<0.0001",highly significant
same,difference in ductal area,"Brca1/P53 deficient mice; multiparous longitudinal cohort, shorter tumor latency, P=0.0007",highly significant
same,ductal wall area (ductal component),"Brca1/P53 deficient mice; nulliparous at five months, P=0.0055",statistically significant decrease
same,ductal area,"Brca1/P53 deficient mice; nulliparous longitudinal cohort, all mice, P=0.0086",smaller
same,difference in ductal area,"Brca1/P53 deficient mice; nulliparous longitudinal cohort, high tumor latency, P= 0.0001",highly significant
same,ductal area,"Brca1/P53 deficient mice; nulliparous longitudinal cohort, low latency",no significant differences
same,median ductal area,"Brca1/P53 deficient mice; treated multiparous, 160-day-old mice, P < 0.0001 vs untreated (9.49%)",1.45%
same,median ductal epithelial area,"Brca1/P53 deficient mice; treated nulliparous, 160-day-old mice, P < 0.0001 vs untreated (8.87%)",0.70%
same,ductal area,[2],significantly less ductal area
same,Sca1+ ductal precursors,WT mice; multiparous WT,decrease
same,ratios of recombinant ductal (CD61+) and mature ductal (CD61-) precursors,WT mice; multiparous WT,no significant differences
same,changes in proportion of luminal and basal cells,"WT mice; multiparous WT, within RFP+ cells",not observed
same,EpCAM+ RFP+ cells within epithelial cells,WT mice; nulliparous WT after treatment,expansion of basal cells
same,Sca1+ ductal cells,"WT mice; nulliparous WT, concerning total RFP+ luminal cells, treated vs untreated",decrease
same,proportions of progenitor (CD61 +) and mature (CD61-) luminal ductal cells,"WT mice; nulliparous WT, treated vs untreated",No differences
same,basal component,WT mice; [5],discrete expansion
same,luminal component,WT mice; [5],slight contraction
same,basal population,"WT mice; nulliparous treated WT, referred to Lin- cells",expansion of the basal population
same,proportion of RFP+ Lin- recombinant cells,"WT mice; nulliparous wild type (WT), five months, treated vs untreated",no significant differences
same,ratios of recombinant ductal (CD61+) and mature ductal (CD61-) precursors,Brca1/P53-deficient mice; multiparous,no significant differences
same,alveolar cell subpopulation,"Brca1/P53-deficient mice; multiparous, against total epithelial cells",remains elevated
same,proportion of recombinant basal cells,Brca1/P53-deficient mice; [6],decrease of the basal one
same,proportion of recombinant luminal cells,Brca1/P53-deficient mice; [6],expansion of the luminal population
same,Sca1- population (RFP-),"Brca1/P53-deficient mice; multiparous, non-recombinant cells, P = 0.0057",statistically significant increase
same,Sca1+ ductal population (RFP-),"Brca1/P53-deficient mice; multiparous, non-recombinant cells, P = 0.4150",no statistically significant differences
same,ductal progenitor population (RFP-),"Brca1/P53-deficient mice; multiparous, non-recombinant cells, P=0.0086",statistically significant decrease
same,mature ductal population (RFP-),"Brca1/P53-deficient mice; multiparous, non-recombinant cells, p=0.1029",no statistically significant difference
same,proportion of RFP- luminal cells,"Brca1/P53-deficient mice; multiparous, non-recombinant cells, treated vs untreated, P = 0.0372",statistically significant increase
same,proportion of RFP- basal cells,"Brca1/P53-deficient mice; multiparous, non-recombinant cells, treated vs untreated, P = 0.2212",no differences
same,proportion of ductal precursor cells,"Brca1/P53-deficient mice; multiparous, relative to the compartment of luminal cells",specific decrease
same,proportion of RFP+ basal cells,"Brca1/P53-deficient mice; multiparous, with respect to total Lin- cells, treated vs control, P = 0.0774",statistically suggestive reduction
same,proportion of RFP+ luminal cells,"Brca1/P53-deficient mice; multiparous, with respect to total Lin- cells, treated vs untreated, P = 0.0185",statistically significant increase
same,alveolar Sca1-population (RFP+),"Brca1/P53-deficient mice; multiparous, with respect to total recombinant EpCAM+ cells, P = 0.0011",increase
same,Sca1+ ductal population (RFP+),"Brca1/P53-deficient mice; multiparous, with respect to total recombinant EpCAM+ cells, P = 0.7859",No differences
same,"progenitor subpopulation, CD61+ (RFP+)","Brca1/P53-deficient mice; multiparous, with respect to total recombinant luminal cells, P = 0.0145",statistically significant decrease
same,CD61- subpopulation (RFP+),"Brca1/P53-deficient mice; multiparous, with respect to total recombinant luminal cells, P= 0.1743",no differences
same,proportion of basal cells,Brca1/P53-deficient mice; [7],consequent decrease
same,proportion of luminal cells,Brca1/P53-deficient mice; [7],increase
same,Sca1+ ductal precursors,Brca1/P53-deficient mice; [8],decrease
same,complementary subpopulation of Sca1- mature ductal cells,Brca1/P53-deficient mice; [8],proportional decrease
same,Sca1+ ductal cells,"Brca1/P53-deficient mice; nulliparous, concerning total RFP+ luminal cells, treated vs untreated",decrease

# — EP4272752A1, “PASIREOTIDE OR A PHARMACEUTICAL ACCEPTABLE SALT OR SOLVATE THEREOF, FOR USE IN PREVENTION OR DELAY OF BREAST CANCER IN A FEMALE MAMMAL” (Consejo Superior De Investigaciones Científicas (CSIC), priority 2022, dated 2023)
